# Data published in PMC5847153.
# The chains behind the UniProt entries cited, without tags or fusion partners.
# UniProt P48432: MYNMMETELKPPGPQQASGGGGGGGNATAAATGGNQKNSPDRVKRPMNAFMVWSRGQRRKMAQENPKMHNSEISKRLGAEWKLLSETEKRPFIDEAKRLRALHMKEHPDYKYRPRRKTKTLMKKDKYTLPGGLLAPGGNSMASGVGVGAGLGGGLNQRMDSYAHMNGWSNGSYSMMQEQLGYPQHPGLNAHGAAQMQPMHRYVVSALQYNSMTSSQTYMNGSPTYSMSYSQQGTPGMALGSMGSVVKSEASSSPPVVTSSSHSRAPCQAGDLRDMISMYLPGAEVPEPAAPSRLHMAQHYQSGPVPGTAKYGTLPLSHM
# UniProt D3YXK2: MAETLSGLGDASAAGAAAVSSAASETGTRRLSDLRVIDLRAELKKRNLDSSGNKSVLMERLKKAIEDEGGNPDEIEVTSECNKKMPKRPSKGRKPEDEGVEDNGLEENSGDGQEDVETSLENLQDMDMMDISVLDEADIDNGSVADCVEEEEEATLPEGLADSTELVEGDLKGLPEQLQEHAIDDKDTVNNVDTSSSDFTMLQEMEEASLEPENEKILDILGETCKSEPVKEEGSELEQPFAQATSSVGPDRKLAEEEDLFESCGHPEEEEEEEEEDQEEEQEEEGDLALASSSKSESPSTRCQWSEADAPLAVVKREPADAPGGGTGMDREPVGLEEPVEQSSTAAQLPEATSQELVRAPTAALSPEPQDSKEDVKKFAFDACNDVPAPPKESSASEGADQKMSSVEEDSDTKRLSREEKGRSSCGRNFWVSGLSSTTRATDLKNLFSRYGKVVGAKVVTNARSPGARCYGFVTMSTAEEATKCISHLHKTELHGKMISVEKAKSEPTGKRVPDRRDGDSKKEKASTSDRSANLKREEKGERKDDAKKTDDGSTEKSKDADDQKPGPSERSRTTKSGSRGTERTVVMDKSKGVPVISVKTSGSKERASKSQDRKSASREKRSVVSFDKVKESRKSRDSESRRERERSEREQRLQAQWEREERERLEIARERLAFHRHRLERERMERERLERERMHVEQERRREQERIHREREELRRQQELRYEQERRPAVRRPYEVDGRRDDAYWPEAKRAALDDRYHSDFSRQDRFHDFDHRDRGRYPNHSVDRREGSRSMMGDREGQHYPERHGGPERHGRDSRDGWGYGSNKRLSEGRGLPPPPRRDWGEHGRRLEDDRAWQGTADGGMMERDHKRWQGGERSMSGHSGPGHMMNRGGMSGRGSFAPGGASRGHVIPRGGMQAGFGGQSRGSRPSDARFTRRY
# UniProt Q9DBR0: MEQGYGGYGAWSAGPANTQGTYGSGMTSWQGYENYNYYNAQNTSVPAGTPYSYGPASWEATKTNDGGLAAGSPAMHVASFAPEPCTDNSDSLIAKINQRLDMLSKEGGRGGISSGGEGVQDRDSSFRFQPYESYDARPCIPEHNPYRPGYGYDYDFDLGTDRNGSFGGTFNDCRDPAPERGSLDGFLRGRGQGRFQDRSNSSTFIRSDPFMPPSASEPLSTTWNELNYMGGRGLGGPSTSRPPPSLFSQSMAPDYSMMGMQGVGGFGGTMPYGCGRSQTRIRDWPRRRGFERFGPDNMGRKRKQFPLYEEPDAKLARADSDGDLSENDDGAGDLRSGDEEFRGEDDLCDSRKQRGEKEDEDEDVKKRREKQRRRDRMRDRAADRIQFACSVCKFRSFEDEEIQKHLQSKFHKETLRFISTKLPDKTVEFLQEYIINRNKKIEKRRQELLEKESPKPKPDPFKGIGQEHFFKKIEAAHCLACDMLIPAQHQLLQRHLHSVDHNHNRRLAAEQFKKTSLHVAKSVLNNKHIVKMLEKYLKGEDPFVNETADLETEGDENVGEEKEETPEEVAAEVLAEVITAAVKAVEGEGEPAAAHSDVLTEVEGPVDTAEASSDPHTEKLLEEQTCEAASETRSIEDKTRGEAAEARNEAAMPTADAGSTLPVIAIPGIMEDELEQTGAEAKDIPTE
# No constants are given. Whether binding was seen depends on the method and setting. In cells and extracts the contact can be indirect. Here binding means that the protein was enriched with, or labelled near, the bait; the list need not be complete.
# Molecular target: bioSox2 (bio-TEV-Sox2), biotinylated by birA (mouse) (UniProt P48432)
# Experiment: affinity purification with mass spectrometry; bioSox2 complexes from nuclear extracts of E18.5 lungs of bioSox2/birA mice held on streptavidin Dynabeads M-280, 4 °C, wash with 100 mM KCl and 0.02% NP-40; birA-only mice as control; MALDI-TOF MS; in triplicate
row,binding,Substance
1,binds,Scaffold attachment factor B1 (from UniProt D3YXK2 1-937)
2,binds,Akap8 (from UniProt Q9DBR0 1-687)
